In publication PMC2944796:

B1: DIM-5 (enzyme, UniProt Q8X225 1-331)
chain: MEKAFRPHFFNHGKPDANPKEKKNCHWCQIRSFATHAQLPISIVNREDDAFLNPNFRFIDHSIIGKNVPVADQSFRVGCSCASDEECMYSTCQCLDEMAPDSDEEADPYTRKKRFAYYSQGAKKGLLRDRVLQSQEPIYECHQGCACSKDCPNRVVERGRTVPLQIFRTKDRGWGVKCPVNIKRGQFVDRYLGEIITSEEADRRRAESTIARRKDVYLFALDKFSDPDSLDPLLAGQPLEVDGEYMSGPTRFINHSCDPNMAIFARVGDHADKHIHDLALFAIKDIPKGTELTFDYVNGLTGLESDAHDPSKISEMTKCLCGTAKCRGYLW
B2: NCU04152 (DIM-7) (protein, UniProt Q1K7K7 1-666)
chain: MAGPGRPRRRRGSSASIDSTDDRRRRWTRELAILKPVTPGTSDDLWPYFAVLTDATIYQKDGKTLANPLHVDLEGPFIVRGKLEPVEDGDDEARECFHKPYNKATYIEISRSERYSIGYEPNTLWVSGASGWFEIIPSRKYETMYNEVMEAITLYYGIMGPYEEHKRLLKKADKKKRKDVKPPSLDEIFFSYALTAGDGAVTVKEEVEARCLKWAQFLLAHFPKESEIRWQDTGFAAWLQSARPDLQKKISDVAAGLLTKPAAEPEGLLARDDHSPQPQSLAIREPPKGGRTTRTSRQASELSDQRSDKGKGIARDSPVETPIPAPVSNRHLSSSSPRPRASPAVITGSDDLPDDPVDRLIVLLGEVAQRIDIKTVKMSKINSDLFYNCRIKYYNAARELCEHFAKDLLERLPPMWDNTPYRAWLEDVVENGRPAPVEFVVEDIPQYLTRRTRRQTHISRLSSALGPTPSVEAESKDEVRAGKQPRVGRPSGKVATLRVAGSKRLASDMIDEDELPPRRGRKALKRTVRVEEDEDSDANSVIIDMTDNTGVIPKDAVRIVVQAERLPTMSPAGPNGTWTCDQEGCNYVVRSADEPEGQDLISKHFKDHEEQAQKINLAMEESKAGHLPINHLLDKIQAMGKNALAKKRGSLNGEPLPLPIKRRLLI
B3: protein encoded by NCU06123 (protein, UniProt Q7S5G5 1-827)
chain: MSDSNELEVESISPFGPARSTIKGEPLTKEEIDKFNDFFKASLYLSLGMIYLRDNPLLKEPLDTKHLKARLLGHFGSAPGQIFTWMHFNRLIKKYDLDSIFISGPGHGAPAVLSQAYLEGTYSEVYPEISEDEEGMQKFFKHFSFPGGIGSHATPETPGSIHEGGELGYSISHAFGAVFDHPNLIALTMVGDGEAETGPLATSWHSTKFLNPITDGAVLPVLHLNGYKINNPTILARISHKELENLFRGYGYEPYFVEGDDVDTMHQAMAATLEHCVLEIRKFQQKARESGKAFRPRWPVIILRSPKGWTGPRKIDDKFLEGFWRAHQVPITDVHEKPEHLKILEQWMKSYEPDRIFRDGRISEDLKDLCPTGTRRMSANPVANGGIIRKTLRMPDFRNYALKVDKPASIMAASMTNMSMFLRDVIAGNPTTFRLFGPDETESNKLGKVYEAGKKVWLGEYFEEDKDGGNLAPEGRVMEMLSEHTCEGWLEGYILTGRHGLLNSYEPFIHVIDSMVNQHCKWLEKCLEVEWRHKVASLNILLTAVVWRQDHNGFTHQDPGFLDVVANKSPEIVRIYLPPDGNCLLSVTDHCLRSSNYVNVIVADKQEHLQYLSMDDATIHCTKGIGIWPQFSSDRGEEPDLVMASCGDISTHESLAAIDLLLQHFPELKIRCVNCVDLFKLISHDEHPHGLTDAEWISLFTDNRPIIFNFHSYPWLVHRLTYKRPGSHNVHVRGYREKGNIDTPLELAIRNGTDRFSLAMAAIDHMTGILGNRGAAAREQLRNEQLKAKAMAFEVGMDPPFLKNWTWPHTGLWSKGEARVASEQHLH
B4: protein encoded by NCU07855 (protein, UniProt Q7SBV3 1-555)
chain: MEAHAQPQRSRKRPSRTTRVPDAGNGASAAAAAQGPGVVPVSQGWGQHPVQSQHQHTVQHGVPQHSQHAHQTHQVQQPHPGAHPHQAHHQQVQVQHQHQHQHPQAVRAHPDTVSAQPPTFASQQLDTRSHQVPADPDGLMNGYNAPQHQQYADPPSSSLAPAPQPDNSGLTSLSNLTGDNGASHQQHHQQRSQHQQLQLQHHAQQQQQQQQQQQQQVQQQQQAQQAQQQQQQQQQRTSVAPSSTTDRVNFNTYPNHSAPNDSSPSPVTVATSSAGYNNLSGWTQPVANSTAQSTMPPPSPAPALAPPPEGIYRTFEDLLASVQKVAKDQGYGVVKLRASNYREGKPTRYDLVCDRGGVKYSSTAKKRNPSTRKVDCPWRAKAVCEVNLGNQWRFAVQEARHNHEPRIPAAVPGQENTPIAQSIRSITNKIDRLQHDQTTSFQRLEANVSTILARIDNMEKRLDAIESGRPSMLGGNGVPSMGTPSMPTANMGGGNLGNGPMTNGGMSGGHIVDTRLNSMEARMNAMEQRGNPMDGLPMMDDDTGRLAMNQMMVST

Target: Myc-His-DCAF26 (N. crassa)
Assay: affinity purification with mass spectrometry; Myc-His-DCAF26 from the dcaf26^KO, qa-Myc-His-DCAF26 strain purified on a nickel column, then c-Myc antibody agarose; SDS-PAGE, silver stain, excised bands by LC-MS/MS; wild-type strain as negative control

binding | Binder
binds | B1
binds | B2
binds | B3
binds | B4

Results are given in words; binding and its absence hold for the method and conditions named. Binding seen in cells or lysates may run through a third protein. A yes stands for co-enrichment or nearness to the bait. Other partners may have been found.
